Results are given in words; binding and its absence hold for the method and conditions named. In cells and extracts the contact can be indirect. A yes stands for co-enrichment or nearness to the bait. Other partners may have been found.
Target: Flag-RUNX2 (WT) (human)
Assay: affinity purification with mass spectrometry; Flag-RUNX2-WT (1 ug plasmid) or Flag-RUNX2-Tri-A (2 ug plasmid) in HEK293T cells, 48 h; Flag-conjugated agarose, eluted with Flag peptide; eluates to mass spectrometry

B1: USP47 (endogenous, HEK293T) (enzyme, UniProt Q96K76 1-1375)
chain: MVPGEENQLVPKEDVFWRCRQNIFDEMKKKFLQIENAAEEPRVLCIIQDTTNSKTVNERITLNLPASTPVRKLFEDVANKVGYINGTFDLVWGNGINTADMAPLDHTSDKSLLDANFEPGKKNFLHLTDKDGEQPQILLEDSSAGEDSVHDRFIGPLPREGSGGSTSDYVSQSYSYSSILNKSETGYVGLVNQAMTCYLNSLLQTLFMTPEFRNALYKWEFEESEEDPVTSIPYQLQRLFVLLQTSKKRAIETTDVTRSFGWDSSEAWQQHDVQELCRVMFDALEQKWKQTEQADLINELYQGKLKDYVRCLECGYEGWRIDTYLDIPLVIRPYGSSQAFASVEEALHAFIQPEILDGPNQYFCERCKKKCDARKGLRFLHFPYLLTLQLKRFDFDYTTMHRIKLNDRMTFPEELDMSTFIDVEDEKSPQTESCTDSGAENEGSCHSDQMSNDFSNDDGVDEGICLETNSGTEKISKSGLEKNSLIYELFSVMVHSGSAAGGHYYACIKSFSDEQWYSFNDQHVSRITQEDIKKTHGGSSGSRGYYSSAFASSTNAYMLIYRLKDPARNAKFLEVDEYPEHIKNLVQKERELEEQEKRQREIERNTCKIKLFCLHPTKQVMMENKLEVHKDKTLKEAVEMAYKMMDLEEVIPLDCCRLVKYDEFHDYLERSYEGEEDTPMGLLLGGVKSTYMFDLLLETRKPDQVFQSYKPGEVMVKVHVVDLKAESVAAPITVRAYLNQTVTEFKQLISKAIHLPAETMRIVLERCYNDLRLLSVSSKTLKAEGFFRSNKVFVESSETLDYQMAFADSHLWKLLDRHANTIRLFVLLPEQSPVSYSKRTAYQKAGGDSGNVDDDCERVKGPVGSLKSVEAILEESTEKLKSLSLQQQQDGDNGDSSKSTETSDFENIESPLNERDSSASVDNRELEQHIQTSDPENFQSEERSDSDVNNDRSTSSVDSDILSSSHSSDTLCNADNAQIPLANGLDSHSITSSRRTKANEGKKETWDTAEEDSGTDSEYDESGKSRGEMQYMYFKAEPYAADEGSGEGHKWLMVHVDKRITLAAFKQHLEPFVGVLSSHFKVFRVYASNQEFESVRLNETLSSFSDDNKITIRLGRALKKGEYRVKVYQLLVNEQEPCKFLLDAVFAKGMTVRQSKEELIPQLREQCGLELSIDRFRLRKKTWKNPGTVFLDYHIYEEDINISSNWEVFLEVLDGVEKMKSMSQLAVLSRRWKPSEMKLDPFQEVVLESSSVDELREKLSEISGIPLDDIEFAKGRGTFPCDISVLDIHQDLDWNPKVSTLNVWPLYICDDGAVIFYRDKTEELMELTDEQRNELMKKESSRLQKTGHRVTYSPRKEKALKIYLDGAPNKDLTQD
binding: binds

Reference: article PMC7210266
